Test results from PMC9454758.
Results are given in words; binding and its absence hold for the method and conditions named. Some entries that bind do so weakly or less than the wild type. For part of these data: Where a sequence is shown, tags or fusion partners need not be part of it.

How the values were obtained:
Test in all cases: western blot of total protein extracts (dimer band); total protein extracts of U251 lines (MLC1-WT, T17D) and primary mouse astrocytes, anti-MLC1 pAb; control, hyposmotic solution, hyposmotic solution with 10 µM KN93
[1] = molecular target: human recombinant MLC1 wild-type (MLC1-WT), Xpress-tagged, stably overexpressed in U251 astrocytoma cells (human) (UniProt Q15049)
[2] = molecular target: endogenous MLC1 protein of primary mouse astrocytes (mouse (endogenous in primary astrocytes)) (UniProt Q8VHK5)
[3] = molecular target: MLC1-T17D mutant (phosphorylation mimicking), stably expressed in U251 cells (human) (UniProt Q15049)

B1: human recombinant MLC1 wild-type (MLC1-WT), Xpress-tagged, stably overexpressed in U251 astrocytoma cells (protein, UniProt Q15049 1-377)
chain: MTQEPFREELAYDRMPTLERGRQDPASYAPDAKPSDLQLSKRLPPCFSHKTWVFSVLMGSCLLVTSGFSLYLGNVFPAEMDYLRCAAGSCIPSAIVSFTVSRRNANVIPNFQILFVSTFAVTTTCLIWFGCKLVLNPSAININFNLILLLLLELLMAATVIIAARSSEEDCKKKKGSMSDSANILDEVPFPARVLKSYSVVEVIAGISAVLGGIIALNVDDSVSGPHLSVTFFWILVACFPSAIASHVAAECPSKCLVEVLIAISSLTSPLLFTASGYLSFSIMRIVEMFKDYPPAIKPSYDVLLLLLLLVLLLQAGLNTGTAIQCVRFKVSARLQGASWDTQNGPQERLAGEVARSPLKEFDKEKAWRAVVVQMAQ
binding [1]: binds

B2: endogenous MLC1 protein of primary mouse astrocytes (protein, UniProt Q8VHK5 1-382)
chain: MTREGQFREELGYDRMPTLERGRQDAGRQDPGSYTPDSKPKDLQLSKRLPPCFSYKTWVFSVLMGSCLLVTSGFSLYLGNVFPSEMDYLRCAAGSCIPSAIVSFAVGRRNVSAIPNFQILFVSTFAVTTTCLIWFGCKLILNPSAININFNLILLLLLELLMAATVIISARSSEEPCKKKKGSISDGSNILDEVTFPARVLKSYSVVEVIAGVSAVLGGVIALNVEEAVSGPHLSVTFFWILVACFPSAIASHVTAECPSKCLVEVLIAISSLTSPLLFTASGYLSFSVMRVVEIFKDYPPAIKSYDVLLLLLLLLLLLQGGLNTGTAIQCVSFKVSARLQAASWDPQSCPQERPAGEVVRGPLKEFDKEKAWRAVVVQMAQ
binding [2]: binds

B3: MLC1-T17D mutant (phosphorylation mimicking), stably expressed in U251 cells (protein, UniProt Q15049 1-377)
chain: MTQEPFREELAYDRMPDLERGRQDPASYAPDAKPSDLQLSKRLPPCFSHKTWVFSVLMGSCLLVTSGFSLYLGNVFPAEMDYLRCAAGSCIPSAIVSFTVSRRNANVIPNFQILFVSTFAVTTTCLIWFGCKLVLNPSAININFNLILLLLLELLMAATVIIAARSSEEDCKKKKGSMSDSANILDEVPFPARVLKSYSVVEVIAGISAVLGGIIALNVDDSVSGPHLSVTFFWILVACFPSAIASHVAAECPSKCLVEVLIAISSLTSPLLFTASGYLSFSIMRIVEMFKDYPPAIKPSYDVLLLLLLLVLLLQAGLNTGTAIQCVRFKVSARLQGASWDTQNGPQERLAGEVARSPLKEFDKEKAWRAVVVQMAQ
binding [3]: binds
